Measurements published in paper PMC7049171.

Biological target: Fbxo9 mutant lacking the F-box motif (Fbxo9ΔF), V5-tagged
Assay: co-IP; lysates of well-transfected chicken embryos (n = 10 per treatment); IP with anti-V5, blotted with anti-Neurog2

binding: binds
B1: Neurogenin 2 (Neurog2), endogenous (protein, UniProt Q9YH82 1-213)
chain: MPVKAESPAPAAEDELLLLRLASPAPSASLPSSAGEEDEDEEDGRPRRLQEGARRAGRQRGPPRAARTAETAQRIKRSRRLKANNRERNRMHNLNAALDALRDVLPTFPEDAKLTKIETLRFAHNYIWALTETLRLAGAARLGGAADAAPGAAAEGSPSPASSWSGGASPAPSASPYACTLSPGSPAGSASDAEHWPPPRGRFAPPPPPHRCL

No constants are given. Whether binding was seen depends on the method and setting. In cells and extracts the contact can be indirect. Binding can be weak; no strength is given.
